These are yes or no findings as the source states them, for the method shown. Binding seen in cells or lysates may run through a third protein. Some entries that bind do so weakly or less than the wild type.

The target in test [1] is T1, full-length TMEFF2 (TMEFF2-FL) expressed on the surface of 293 cells (human) (UniProt Q9UIK5).
T1 sequence: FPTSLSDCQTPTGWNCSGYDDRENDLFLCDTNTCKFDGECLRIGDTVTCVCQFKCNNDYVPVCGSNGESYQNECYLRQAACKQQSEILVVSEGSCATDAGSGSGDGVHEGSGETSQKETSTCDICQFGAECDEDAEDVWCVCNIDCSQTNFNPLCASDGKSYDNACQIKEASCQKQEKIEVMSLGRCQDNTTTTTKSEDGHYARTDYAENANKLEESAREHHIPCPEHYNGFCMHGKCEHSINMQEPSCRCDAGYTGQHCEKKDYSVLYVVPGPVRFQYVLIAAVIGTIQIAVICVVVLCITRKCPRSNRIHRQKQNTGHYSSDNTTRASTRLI
The experiment in a line: co-immunoprecipitation with anti-TMEFF2 pAb from transfected 293 cells, anti-PDGF-A blot.

Test [2] concerns the target gD-tagged full-length TMEFF2 expressed on the surface of 293 cells (human) (UniProt Q9UIK5). Nature of the test: co-immunoprecipitation with anti-gD mAb from transfected 293 cells, anti-PDGF-A blot.

“recombinant human PDGF-AA (from UniProt P04085 87-211) (ligand)”: the binding entry in test [1] and in test [2] was “binds” in each case.

For the origin of these results see patent publication US20110159588A1.
